In all, about 33,000 sequences were measured (“E-score (-0.5 to 0.5)”: median about -0.016, highest 2% from about 0.3 on). The list shows a part of the results.

The target of the assay is T1, Yer184c (UniProt P39961).
T1 sequence: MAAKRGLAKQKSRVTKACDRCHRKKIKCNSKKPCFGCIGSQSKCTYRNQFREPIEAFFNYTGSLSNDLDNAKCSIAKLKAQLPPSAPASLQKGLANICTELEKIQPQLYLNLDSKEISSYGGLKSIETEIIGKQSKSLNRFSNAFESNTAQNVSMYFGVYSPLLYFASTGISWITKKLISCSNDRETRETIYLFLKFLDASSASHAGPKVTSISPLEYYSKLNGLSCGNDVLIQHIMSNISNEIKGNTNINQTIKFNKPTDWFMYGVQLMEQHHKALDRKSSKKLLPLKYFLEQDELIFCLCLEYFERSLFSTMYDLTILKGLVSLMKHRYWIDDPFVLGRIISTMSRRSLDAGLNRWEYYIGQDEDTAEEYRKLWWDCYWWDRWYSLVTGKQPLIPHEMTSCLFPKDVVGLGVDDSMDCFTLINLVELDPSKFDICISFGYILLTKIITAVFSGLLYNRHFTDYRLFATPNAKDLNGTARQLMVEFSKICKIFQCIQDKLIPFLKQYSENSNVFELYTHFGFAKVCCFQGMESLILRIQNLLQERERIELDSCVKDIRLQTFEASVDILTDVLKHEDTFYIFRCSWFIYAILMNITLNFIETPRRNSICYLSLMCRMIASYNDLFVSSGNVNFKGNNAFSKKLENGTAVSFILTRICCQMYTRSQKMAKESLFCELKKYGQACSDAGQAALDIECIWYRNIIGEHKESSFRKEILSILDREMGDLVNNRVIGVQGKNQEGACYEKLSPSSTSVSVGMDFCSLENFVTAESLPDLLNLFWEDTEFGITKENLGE
Nature of the assay: PBM E-score (8-mer binding enrichment) (E-score (-0.5 to 0.5)); higher = stronger / more preferred TF binding. The following applies: protein concentration: 100 nM; construct: GST-full length. The protocol:
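Universal 'all 10-mer' protein binding microarrays (Agilent AMADID 015681) probed with GST-tagged S. cerevisiae TFs (full-length or DBD) made by in vitro transcription/translation (PURExpress), about 100-200 nM. Bound TF was detected with fluorescent anti-GST. Each ungapped 8-mer (which stands for itself and its reverse complement) is scored by the PBM enrichment score (E-score), a modified Wilcoxon-Mann-Whitney statistic from -0.5 to +0.5, computed with the Universal PBM Analysis Suite. Scale: above 0.35 generally sequence-specific binding.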
In the case of ACCTCTAT, the “PBM E-score” value is 0.0127. For the sequence CGCCGCCA, the “PBM E-score” value was found to be 0.0955. For CCGTACCC, the “PBM E-score” value was 0.0339. To AAAACCTA belongs 0.0965; to CAAATGTG, 0.173; to AGGGAGAT, -0.264. With AAGTGAAC the figure was -0.118. With ACAAAAGC the figure was 0.155; with GTGCTCCA, -0.164; with ATGATACC, 0.177. AACGCTGC: the “PBM E-score” value was -0.0934. With GCTCGTAA the figure was -0.0998; with GCCACTAA, -0.138. For the sequence ACTCGGCA, the “PBM E-score” value was determined as 0.299. With GCACACAA the figure was 0.072. With AAGTGTCA the figure was -0.293; with ACGTAAGA, 0.0481; with TAATTCAA, 0.2.

On to GACTCGAA, for which the “PBM E-score” value is -0.0931.

With CTGTCGCC, the “PBM E-score” value was -0.124. With GCGAGTCC the figure was -0.144. To ATCGGGCC belongs 0.00051; to GAGCTCTA, -0.0976; to CGCCTGGA, -0.144.

AATCAACA: the “PBM E-score” value was found to be 0.22. To CTTGAGCC belongs -0.156; to ATAGGCAT, -0.124. On to CTGTCAAA, for which the “PBM E-score” value amounted to 0.0616.

GTCACACA: the “PBM E-score” value was -0.161. Consider ACTACTAT, for which the “PBM E-score” value was 0.229. As to GATGGCGC, the “PBM E-score” value was -0.182. To CGTGGATC belongs -0.29; to GGCAATAC, 0.19. To CGAGACCG belongs 0.156; to GCCTTCGA, -0.137; to CCATCCCG, -0.106. With AAAAGATA the figure was 0.169; with CTTATCCA, 0.0531; with ACCATGGC, 0.127. Take AACTCCTG: the “PBM E-score” value is -0.224. To TATCTCAA belongs 0.168; to AACCGATA, 0.138. To GATTTGCA belongs 0.133. To CTTCATAC belongs 0.0285; to ATCAACAC, 0.0913; to ACATCTAG, -0.0165.

Regarding TCTAGACA, the “PBM E-score” value amounted to 0.0416. To CCGTGCGA belongs 0.166; to CTGAAAGA, 0.167; to AGTGGAAA, -0.0383. Take AAGCAGAC: the “PBM E-score” value was -0.195. GTGCTTTA: the “PBM E-score” value turned out to be 0.00912. To CACACATG belongs -0.265; to CCTTTGCC, -0.14. For the sequence AATTCGTA, the “PBM E-score” value came out at 0.138. On to GAGAGCGA, for which the “PBM E-score” value was -0.0954.

On to GGTGTGAA, for which the “PBM E-score” value turned out to be 0.182. To CGTTGCAG belongs -0.18; to ACATTAGA, -0.0226. To CCTAATAG belongs -0.0409; to ACACCGTG, -0.00201. To AATGGCGA belongs -0.0217.

With CCGGTTGC, the “PBM E-score” value came to 0.355. Take CAAATTGG: the “PBM E-score” value was found to be 0.029. With AAATGGGA the figure was -0.239; with AGACGGCC, -0.0276. To GCGAAAAA belongs 0.14; to CACTTTGG, -0.105.

As to TCGATAAA, the “PBM E-score” value worked out at 0.245. With CATCTAAG the figure was -0.105.

As to AGACCTAC, the “PBM E-score” value was -0.0814. With GCCTTCAC the figure was -0.0769. With AGGGGTTA the figure was -0.234; with GGCTTGAA, 0.057; with CCAACCCG, -0.0269. Turning to TAATCGAA, the “PBM E-score” value was determined as 0.106. To CCTAGCTC belongs -0.0492; to GGTTTTAA, 0.179; to AACATGCA, -0.101.

In the case of AGACCCTG, the “PBM E-score” value is -0.252. With CCACTGCA the figure was -0.2; with CAAGATGG, -0.108.

For the sequence CGCAGGTA, the “PBM E-score” value was -0.0608. As for AGCCGGAC, the “PBM E-score” value was 0.339. To GGGGAGAA belongs -0.0977; to CGCCCCCC, -0.352. To CGTTACTC belongs -0.0712. Consider CCGGTTAA, for which the “PBM E-score” value was 0.297. To TATCATGA belongs -0.0236; to GACCCGAC, -0.0162; to ACCTTATA, 0.0526. For CCAAACGG, the “PBM E-score” value was -0.0361.

As to ACCTAGAA, the “PBM E-score” value came out at 0.0471.

Regarding AATTGGCC, the “PBM E-score” value is -0.127.

Values taken from the supplement of paper PMC3334620.
